Assay results: patent US20150330991A1, “METHOD FOR IMPROVING TARGET AFFINITY OF PEPTIDE” (GWANGJU INSTITUTE OF SCIENCE AND TECHNOLOGY, priority 2012, published 2015)
No constants are given. Whether binding was seen depends on the method and setting. Some binding calls cover weakened binding; strength is not graded here.

Chains of the proteins cited; added tags and fusions are not shown. Residues count along the entry.
UniProt P02751, residues 1266-1356: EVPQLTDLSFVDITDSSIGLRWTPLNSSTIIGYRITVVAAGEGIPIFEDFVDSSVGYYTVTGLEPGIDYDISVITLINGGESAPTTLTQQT
UniProt P17948, residues 27-756: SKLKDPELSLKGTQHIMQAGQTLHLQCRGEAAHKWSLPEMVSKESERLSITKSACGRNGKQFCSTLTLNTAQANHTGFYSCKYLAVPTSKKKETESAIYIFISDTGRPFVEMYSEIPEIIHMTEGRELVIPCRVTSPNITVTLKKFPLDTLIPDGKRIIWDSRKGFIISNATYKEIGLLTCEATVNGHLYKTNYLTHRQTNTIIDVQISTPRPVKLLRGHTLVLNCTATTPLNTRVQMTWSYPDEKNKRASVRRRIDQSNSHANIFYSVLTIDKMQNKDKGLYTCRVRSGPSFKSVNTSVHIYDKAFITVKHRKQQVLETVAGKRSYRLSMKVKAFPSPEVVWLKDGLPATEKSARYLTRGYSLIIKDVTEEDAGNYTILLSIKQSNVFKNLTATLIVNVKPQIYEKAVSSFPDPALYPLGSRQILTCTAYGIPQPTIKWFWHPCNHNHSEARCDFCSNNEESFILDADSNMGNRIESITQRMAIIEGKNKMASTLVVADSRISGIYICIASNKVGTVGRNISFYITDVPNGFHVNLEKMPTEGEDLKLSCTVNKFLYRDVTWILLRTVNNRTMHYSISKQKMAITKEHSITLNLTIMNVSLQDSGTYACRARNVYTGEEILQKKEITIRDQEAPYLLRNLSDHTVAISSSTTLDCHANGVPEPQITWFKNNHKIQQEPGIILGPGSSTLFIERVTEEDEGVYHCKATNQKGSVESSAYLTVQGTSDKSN

What was measured:
[1] = target: streptavidin (UniProt P22629); test: phage ELISA, recombinant phage displaying the peptide on coated streptavidin (BSA, ovalbumin and VEGF as other coats)
[2] = target: streptavidin (UniProt P22629); test: phage ELISA: phage displaying the peptide on wells coated with 5 µg/ml protein, anti-M13-HRP, absorbance at 450 nm
[3] = target: fibronectin extra domain B (ED-B) (UniProt P02751); test: phage colony ELISA on biotin ED-B captured on streptavidin, against streptavidin alone
[4] = target: fibronectin extra domain B (ED-B) (UniProt P02751); test: SPR (Biacore), peptide at 250 nM per the legend, biotin-EDB on a streptavidin SA chip
[5] = target: vascular endothelial growth factor receptor 1 (VEGFR1) (UniProt P17948); test: phage ELISA: phage displaying the peptide on wells coated with 5 µg/ml protein, anti-M13-HRP, absorbance at 450 nm
[6] = target: vascular endothelial growth factor receptor 1 (VEGFR1) (UniProt P17948); test: phage ELISA, recombinant phage displaying the peptide on coated VEGFR1 (VEGFR2, streptavidin, HSA, TNF and VEGF as other coats)

Binder	binding [3]	binding [5]	binding [6]	further results
WSHPQFEKGGGSWTWENGKWTWKGAHPQVR [Strep_opti1]				binding [1]: binds; binding [2]: binds
CSSPIQGSWTWENGKWTWKGIIRLEQ [peptide 3 (…)]	binds			binding [4]: binds
WSHPQFEKGGGSWTWENGKWTWKGTLIHPM [Strep_opti2]				binding [1]: binds; binding [2]: binds
GNQWFIGGGSWTWENGKWTWKGRIPKNR [VEGFR1_opti1]		binds	binds	
GNQWFIGGGSWTWENGKWTWKGKLQNPM [VEGFR1_opti2]		binds	binds	
GNQWFIGGGSWTWENGKWTWKGQQAIQP [VEGFR1_opti3]		binds	binds	
WGGPVRGSWTWENGKWTWKGIIRLEQ [peptide 1 (…)]	binds			
ADGRVRGSWTWENGKWTWKGIIRLEQ [peptide 2 (…)]	binds			
